These are yes or no findings as the source states them, for the method shown. Binding calls can cover weak binding; strength is not graded here. For some of these results: Sequences can lack the tags named with a protein. Values belong to the binder of their own block, whether it stands above or below them.
What was measured:
[1] = target: collagen type I (collagen I coated 96 well-plates, Gibco); test: ELISA, collagen I coated plate
[2] = target: collagen type I (collagen I coated 96 well-plates, Gibco); test: closing sentence of the example on its collagen binding assay
[3] = target: collagen type IV (collagen IV coated 96 well-plates, Corning); test: as above
[4] = target: collagen type IV (collagen IV coated 96 well-plates, Corning); test: ELISA, right panel Collagen IV, anti-6xHis-HRP
[5] = target: collagen type IV (collagen IV coated 96 well-plates, Corning); test: ELISA, collagen IV coated plate
[6] = target: collagen type I (collagen I coated 96 well-plates, Gibco); test: ELISA, left panel Collagen I, anti-6xHis-HRP
[7] = target: collagen type I (collagen I coated 96 well-plates, Gibco); test: ELISA and competition ELISA on collagen I, competitor biotinylated lumican
[8] = target: collagen type I (collagen I coated 96 well-plates, Gibco); test: ELISA, collagen type I, anti-His-HRP detection
[9] = target: collagen type I (collagen I coated 96 well-plates, Gibco); test: competition ELISA on collagen I; 50 nM biotinylated lumican detected with streptavidin-HRP, rmLAIR1 varied
[10] = target: collagen type I (collagen I coated 96 well-plates, Gibco); test: ELISA on collagen I, anti-His-HRP
[11] = target: collagen type I (collagen I coated 96 well-plates, Gibco); test: ELISA on collagen I coated plate, anti-6xHis-HRP
[12] = target: collagen type I (collagen I coated 96 well-plates, Gibco); test: ELISA, collagen I coated plate (Example 2)
[13] = target: collagen type IV (collagen IV coated 96 well-plates, Corning); test: ELISA on collagen IV coated plate, anti-6xHis-HRP

B1: Lumican-MSA-Fn3 (protein)
chain: QYYDYDIPLFMYGQISPNCAPECNCPHSYPTAMYCDDLKLKSVPMVPPGIKYLYLRNNQIDHIDEKAFENVTDLQWLILDHNLLENSKIKGKVFSKLKQLKKLHINYNNLTESVGPLPKSLQDLQLTNNKISKLGSFDGLVNLTFIYLQHNQLKEDAVSASLKGLKSLEYLDLSFNQMSKLPAGLPTSLLTLYLDNNKISNIPDEYFKRFTGLQYLRLSHNELADSGVPGNSFNISSLLELDLSYNKLKSIPTVNENLENYYLEVNELEKFDVKSFCKILGPLSYSKIKHLRLDGNPLTQSSLPPDMYECLRVANEITVNGGGSGGGSEAHKSEIAHRYNDLGEQHFKGLVLIAFSQYLQKCSYDEHAKLVQEVTDFAKTCVADESAANCDKSLHTLFGDKLCAIPNLRENYGELADCCTKQEPERNECFLQHKDDNPSLPPFERPEAEAMCTSFKENPTTFMGHYLHEVARRHPYFYAPELLYYAEQYNEILTQCCAEADKESCLTPKLDGVKEKALVSSVRQRMKCSSMQKFGERAFKAWAVARLSQTFPNADFAEITKLATDLTKVNKECCHGDLLECADDRAELAKYMCENQATISSKLQTCCDKPLLKKAHCLSEVEHDTMPADLPAIAADFVEDQEVCKNYAEAKDVFLGTFLYEYSRRHPDYSVSLLLRLAKKYEATLEKCCAEANPPACYGTVLAEFQPLVEEPKNLVKTNCDLYEKLGEYGFQNAILVRYTQKAPQVSTPTLVEAARNLGRVGTKCCTLPEDQRLPCVEDYLSAILNRVCLLHEKTPVSEHVTKCCSGSLVERRPCFSALTVDETYVPKEFKAETFTFHSDICTLPEKEKQIKKQTALAELVKHKPKATAEQLKTVMDDFAQFLDTCCKAADKDTCFSTEGPNLVTRCKDALAGGGSVSDVPRDLEVVAATPTSLLISWCCSDNCSNSYRITYGETGGNSPVQEFTVPRSCFMATISGLKPGVDYTITAYAVTDSNGPHPISINYRTHHHHHH
binding [1]: binds | binding [2]: binds | binding [3]: binds | binding [4]: binds | binding [5]: binds | binding [6]: binds

B3: 4m5.3-MSA-Lumican (protein)
chain: ADVVMTQTPLSLPVSLGDQASISCRSSQSLVHSNGNTYLRWYLQKPGQSPKVLIYKVSNRVSGVPDRFSGSGSGTDFTLKINRVEAEDLGVYFCSQSTHVPWTFGGGTKLEIKSSADDAKKDAAKKDDAKKDDAKKDGGVKLDETGGGLVQPGGAMKLSCVTSGFTFGHYWMNWVRQSPEKGLEWVAQFRNKPYNYETYYSDSVKGRFTISRDDSKSSVYLQMNNLRVEDTGIYYCTGASYGMEYLGQGTSVTVSGGGSEAHKSEIAHRYNDLGEQHFKGLVLIAFSQYLQKCSYDEHAKLVQEVTDFAKTCVADESAANCDKSLHTLFGDKLCAIPNLRENYGELADCCTKQEPERNECFLQHKDDNPSLPPFERPEAEAMCTSFKENPTTFMGHYLHEVARRHPYFYAPELLYYAEQYNEILTQCCAEADKESCLTPKLDGVKEKALVSSVRQRMKCSSMQKFGERAFKAWAVARLSQTFPNADFAEITKLATDLTKVNKECCHGDLLECADDRAELAKYMCENQATISSKLQTCCDKPLLKKAHCLSEVEHDTMPADLPAIAADFVEDQEVCKNYAEAKDVFLGTFLYEYSRRHPDYSVSLLLRLAKKYEATLEKCCAEANPPACYGTVLAEFQPLVEEPKNLVKTNCDLYEKLGEYGFQNAILVRYTQKAPQVSTPTLVEAARNLGRVGTKCCTLPEDQRLPCVEDYLSAILNRVCLLHEKTPVSEHVTKCCSGSLVERRPCFSALTVDETYVPKEFKAETFTFHSDICTLPEKEKQIKKQTALAELVKHKPKATAEQLKTVMDDFAQFLDTCCKAADKDTCFSTEGPNLVTRCKDALAGGGSGGGSQYYDYDIPLFMYGQISPNCAPECNCPHSYPTAMYCDDLKLKSVPMVPPGIKYLYLRNNQIDHIDEKAFENVTDLQWLILDHNLLENSKIKGKVFSKLKQLKKLHINYNNLTESVGPLPKSLQDLQLTNNKISKLGSFDGLVNLTFIYLQHNQLKEDAVSASLKGLKSLEYLDLSFNQMSKLPAGLPTSLLTLYLDNNKISNIPDEYFKRFTGLQYLRLSHNELADSGVPGNSFNISSLLELDLSYNKLKSIPTVNENLENYYLEVNELEKFDVKSFCKILGPLSYSKIKHLRLDGNPLTQSSLPPDMYECLRVANEITVNGGGSHHHHHH
binding [1]: binds | binding [4]: binds | binding [5]: binds | binding [6]: binds

B4: Lumican-Gluc (His-tagged murine lumican fused to Gaussia luciferase) (protein)
chain: QYYDYDIPLFMYGQISPNCAPECNCPHSYPTAMYCDDLKLKSVPMVPPGIKYLYLRNNQIDHIDEKAFENVTDLQWLILDHNLLENSKIKGKVFSKLKQLKKLHINYNNLTESVGPLPKSLQDLQLTNNKISKLGSFDGLVNLTFIYLQHNQLKEDAVSASLKGLKSLEYLDLSFNQMSKLPAGLPTSLLTLYLDNNKISNIPDEYFKRFTGLQYLRLSHNELADSGVPGNSFNISSLLELDLSYNKLKSIPTVNENLENYYLEVNELEKFDVKSFCKILGPLSYSKIKHLRLDGNPLTQSSLPPDMYECLRVANEITVNGGGSGGGSGGGSKPTENNEDFNIVAVASNFATTDLDADRGKLPGKKLPLEVLKEMEANARKAGCTRGCLICLSHIKCTPKMKKFIPGRCHTYEGDKESAQGGIGEAIVDIPEIPGFKDLEPMEQFIAQVDLCVDCTTGCLKGLANVQCSDLLKKWLPQRCATFASKIQGQVDKIKGAGGDGGGSHHHHHH
binding [11]: binds | binding [1]: binds | binding [12]: binds | binding [5]: binds | binding [13]: binds

More lines, now with the values ahead:

binding [7]: binds | binding [8]: binds | binding [9]: binds | binding [10]: binds
B2: extracellular domain of His-tagged murine LAIR-1 (receptor)
chain: QEGSLPDITIFPNSSLMISQGTFVTVVCSYSDKHDLYNMVRLEKDGSTFMEKSTEPYKTEDEFEIGPVNETITGHYSCIYSKGITWSERSKTLELKVIKENVIQTPAPGPTSDTSWLKTYSIYHHHHHH

binding [1]: binds | binding [2]: binds | binding [3]: binds | binding [4]: binds | binding [5]: binds | binding [6]: binds
B5: Lumican-MSA-SpG2 (protein)
chain: QYYDYDIPLFMYGQISPNCAPECNCPHSYPTAMYCDDLKLKSVPMVPPGIKYLYLRNNQIDHIDEKAFENVTDLQWLILDHNLLENSKIKGKVFSKLKQLKKLHINYNNLTESVGPLPKSLQDLQLTNNKISKLGSFDGLVNLTFIYLQHNQLKEDAVSASLKGLKSLEYLDLSFNQMSKLPAGLPTSLLTLYLDNNKISNIPDEYFKRFTGLQYLRLSHNELADSGVPGNSFNISSLLELDLSYNKLKSIPTVNENLENYYLEVNELEKFDVKSFCKILGPLSYSKIKHLRLDGNPLTQSSLPPDMYECLRVANEITVNGGGSGGGSEAHKSEIAHRYNDLGEQHFKGLVLIAFSQYLQKCSYDEHAKLVQEVTDFAKTCVADESAANCDKSLHTLFGDKLCAIPNLRENYGELADCCTKQEPERNECFLQHKDDNPSLPPFERPEAEAMCTSFKENPTTFMGHYLHEVARRHPYFYAPELLYYAEQYNEILTQCCAEADKESCLTPKLDGVKEKALVSSVRQRMKCSSMQKFGERAFKAWAVARLSQTFPNADFAEITKLATDLTKVNKECCHGDLLECADDRAELAKYMCENQATISSKLQTCCDKPLLKKAHCLSEVEHDTMPADLPAIAADFVEDQEVCKNYAEAKDVFLGTFLYEYSRRHPDYSVSLLLRLAKKYEATLEKCCAEANPPACYGTVLAEFQPLVEEPKNLVKTNCDLYEKLGEYGFQNAILVRYTQKAPQVSTPTLVEAARNLGRVGTKCCTLPEDQRLPCVEDYLSAILNRVCLLHEKTPVSEHVTKCCSGSLVERRPCFSALTVDETYVPKEFKAETFTFHSDICTLPEKEKQIKKQTALAELVKHKPKATAEQLKTVMDDFAQFLDTCCKAADKDTCFSTEGPNLVTRCKDALAGGGSTYKLVINGKTLKGETTTEAVDAATAEKVFKQYANDYGVDGEWTYDDATKTFTVTEKPEVIDASELTPAVTTYKLVINGKTLKGETTTKAVDAETAEKAFKQYANDYGVDGVWTYDDATKTFTVTEHHHHHH
